Measured values published in patent US20250145961A1, “GENERATING BONE MARROW ORGANOIDS” (The University of Birmingham, priority 2022, published 2025).
At least one structure is not confirmed: it was looked up by name or label, or the drawing left a doubt.

Test system: MF-patient organoids
Assay: Bone marrow organoids engrafted with CD34+ cells from patients with myelofibrosis, screen of potential therapies (immunofluorescence of paraffin embedded sections)
Type: cell-based, human
Conditions: organoids seeded with MF patient cells for 14 days, treatment at day 7 post engraftment, 0.1 and 1 uM, vs DMSO treated
Procedure: FIG. 12: Organoids engrafted with CD34^+ cells from patients with myelofibrosis can be used to screen potential therapies in a patient specific approach. Bone marrow organoids were seeded with cells from patients with myelofibrosis for 14 days in total, with pharmacological interventions staged at day 7 post engraftment. […] Samples were also treated with the inhibitor SB431542, the BET bromodomain inhibitor JQ1, and the current clinical treatment for myelofibrosis ruxolitinib (at 0.1 and 1 uM respectively). […] (B) Representative immunofluorescence imaging of paraffin embedded sections.
Cells were isolated from cryopreserved peripheral blood or bone marrow mononuclear cells and stained with CellVue Claret Far Red Fluorescent Cell Linker Mini Kit for General Membrane Labeling (Sigma Aldrich, Cat #MINCLARET-1KT) following the instructions provided by the manufacturer. Organoids were seeded with 5000 cells per wells and cultured for 8-14 days in StemPro. On collection day, organoids were fixed for imaging or digested for assessment by flow cytometry or RNA extraction and qRT PCR.
Sections were blocked using 2% Goat Serum (Thermo Fisher Scientific, Cat #31872) 1% Bovine Serum Albumin (BSA) (Sigma, Cat #A9418) prior to primary antibody labelling with antibody diluted in 1% BSA, sequential PBS washes, and finally secondary labelling with AlexaFluor conjugates. […]

N#CC[C@H](C1CCCC1)n1cc(-c2ncnc3[nH]ccc23)cn1 [ruxolitinib]
COL1A1 level, immunofluorescence: significant reductions
